# Primary screen of a compound library

Measurements from “University of Dundee, Small-Polar-MMV Screening Library” (2021), ChEMBL document CHEMBL3988442.

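Viability assay of Plasmodium falciparum sporozoites; the read-out is not stated. The concentration is filed as 10 mM, unlikely as a test dose, so the dose is not known. Higher reads as lower viability (inferred: compounds with an IC50 in retests scored well above the rest). Strong results were mostly tested again. Of about 34,000 compounds tested this way, about 280 (0.84%) reached 50% or more in at least one test.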

Values are the deposited “Percent Effect”, in %. The record does not define 0% and 100%; most values in the screen are far below 50% and negative numbers occur (in some assays of this library far below -100). This is an unselected part of the compounds tested. Two or more numbers in one place are separate tests of the same structure; such repeats can differ widely.

For O=C(O)C(F)(F)F.O=C(O)C(F)(F)F.[H][C@@]12C[C@H](C(=O)NCC3CC3)N(C)[C@]1([H])CN(Cc1c(C)noc1C)C2 the result was 5.596%. Cc1ncsc1C(=O)OCCN1CCCc2ccccc21 read 7.162%. With CC(=O)N(Cc1ncc(C(C)C)o1)C1CCN(Cc2cc(C)on2)C1 (stereo not drawn) the screen gave -1.162%. For O=C(NCc1cc[nH]n1)NCC(O)c1ccc(F)c(F)c1 (stereo not drawn) the result was 0.3309%. For O=C(O)C(F)(F)F.[H][C@@]12CN(Cc3nccn3C)C[C@@]1([H])N(Cc1cccc(C)c1)C(=O)CO2 the result was -9.245%.

For CC(C)(C)OC(=O)N(CCNS(=O)(=O)N1CCOCC1)C1CC1 the result was -17.39%. With Cc1cc(NC(=O)CCN2CCn3c(nnc3C3CC3)C2)no1 the screen gave 1.561%. For Nc1nc(N2CCCCC2)ncc1C(=O)NCc1ccc(F)c(Cl)c1 the result was -8.333%. Cn1cc(-c2ncc3c(c2C(=O)O)CCN(CC2CC2)C3)cn1.O=C(O)C(F)(F)F.O=C(O)C(F)(F)F gave 3.882%. [H][C@]12CN(c3ccccn3)CCN1C[C@@H](CO)[C@@H]2c1ccccc1 gave 2.201%.

For O=c1ccc(-c2ccccc2F)nn1CCN1CCCS1(=O)=O the result was 0.9227%. COCCN(Cc1nc2c(cnn2C)c(=O)[nH]1)Cc1ccco1 read -5.12%. With Cc1noc2nc3c(c(C(=O)/N=c4\[nH]ncs4)c12)CCC3 the screen gave -1.923%. With Cc1csc(C(=O)N2CC[C@H](Oc3cccnc3C)[C@@H](O)CC2)c1 the screen gave 4.519%. O=C(O)[C@@H]1CN(C(=O)c2ccc3[nH]nnc3c2)C[C@H]1c1cccc(F)c1 gave -0.4677%.

COc1ccc2cc(CNCc3c(C)nn(C)c3N(C)C)ccc2c1 read -84.61%. For O=C(c1cccnc1N1CCCCC1)N1CCCC(n2ccnc2)C1 (stereo not drawn) the result was -4.179%. CCC1CCCN(C(=O)Cc2csc(-c3ncccn3)n2)C1 (stereo not drawn) read 5.111%. With COc1ncccc1CNC(=O)c1cc(C)on1 the screen gave -11.85%. With NC(=O)CN1CCC(C(=O)N2CCCC(OCc3cccnc3)C2)CC1 (stereo not drawn) the screen gave 1.351%.

CCc1cc(O)nc(C2CCCN2C(=O)COC)n1 (stereo not drawn) read -82.08%. Cc1ccc(CN(Cc2ncc[nH]2)C2CC(C)(C)NC(C)(C)C2)o1.O=C(O)CC(O)(CC(=O)O)C(=O)O gave 18.65%. CC(=O)N1CCOCC2(CCN(Cc3ccc(C)s3)CC2)C1.O=C(O)C(F)(F)F read -0.5411%. Result for Cc1cccc(CC(=O)N2CCCC(c3n[nH]c4nccnc34)C2)c1 (stereo not drawn) was 5.888%. With COc1ccc(Cc2cccc(C3CCN(C)CC3)n2)cc1 the screen gave -15.28%.

With COc1ccc(-c2nnc(SC(C)C(=O)NC3CC3)[nH]2)c(OC)c1 (stereo not drawn) the screen gave -1.015%. For Cc1cc(C2CCC2)nc(NCCC23CCCN2CCC3)n1 the result was -3.684%. CC(C(=O)NC1CC1)S(=O)(=O)Cc1csc(-c2cccs2)n1 (stereo not drawn) read 30.38% and 28.24%. With O=C(c1c2c(N3CCCC3)ncnc2n2ccccc12)N1CCCC1 the screen gave -5.839%. CCCN(C(=O)CCS(=O)(=O)Cc1ccccc1)c1cccc(C)c1 read -5.658%.

Some entries from above, unchanged:

{"smiles": "CC(C)(C)OC(=O)N(CCNS(=O)(=O)N1CCOCC1)C1CC1", "percent effect": -17.39}
{"smiles": "COCCN(Cc1nc2c(cnn2C)c(=O)[nH]1)Cc1ccco1", "percent effect": -5.12}
{"smiles": "CC(C(=O)NC1CC1)S(=O)(=O)Cc1csc(-c2cccs2)n1", "stereo": "stereo not drawn", "percent effect": "30.38 and 28.24"}